From PubChem BioAssay AID1347076 (National Center for Advancing Translational Sciences (NCATS), 2019)
Among all 400,000 compounds or so, about 13,000 (3.2%) were called active. Inconclusive means that the source gave no clear call. Such entries were picked first, then a sample of the others. Calls follow the shape of the dose curve; as a rule, active = well fitted cell-killing curve with a large enough effect; inconclusive = small, poorly fitted or top-dose-only effect, or effect the other way; inactive = flat fitted curve, though single readings scatter. Potencies of inconclusive entries are doubtful fits and often do not repeat.

Experiment: qHTS assay for MDR1-selective chemotherapeutics: Primary screen using the drug-selected MDR subline cells KB-V1; also: nearly all actives have a fitted effect of over 60% in size
Conditions: KB-V1 MDR cells viability, CellTiter-Glo, 72 h; activity change, negative = cytotoxicity: at 46.1 µM (top of the series)
How it was run: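 KB-V1 MDR subline cells in DMEM (phenol-red free, 10% FBS) exposed to compounds in qHTS concentration series for 72 h at 37 degrees C. Viability read by CellTiter-Glo luminescence; concentration-effect curves fitted after normalization and correction.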
% is scaled to controls: 0 for no effect and ±100 for the full control effect; potency is read from the fitted curve at half-maximal effect.

Row | Structure (SMILES) | Potency | activity change, negative = cytotoxicity
1 | Fc1ccc(NCc2nc3ccccc3n2CCOc2ccccc2Cl)cc1 | inconclusive: 25.9 µM [cytotoxic, single point] | –
2 | COC(=O)[C@@]12C[C@@H](CC(=O)NCc3ccccc3)C(=O)N(Cc3ccc4c(c3)OCO4)C1=CCC(C)(C)C2 | active: 20.6 µM | –
3 | CN(CCOc1ccc(Cl)cc1)C(=O)CN1C(=O)NC2(CCCC2)C1=O | inconclusive: 18.4 µM [cytotoxic, single point] | –
4 | Cc1c(Cl)cccc1NC(=O)CCS(=O)(=O)c1cccc2nsnc12 | – | inactive: -20.9%
5 | CC(C)c1nnc2c(N(C)S(=O)(=O)c3ccccc3)nc3ccccc3n12 | inconclusive: 10.3 µM [rising, partial curve, poor fit] | –
6 | Cc1ccc(NC(=O)c2ccc(Cl)c(S(=O)(=O)N3CCc4ccccc43)c2)nc1 | inconclusive: 29.1 µM [cytotoxic, single point] | –
7 | CCCCNC(=O)c1ccc(-c2nc(CN3CCc4ccccc43)c(C)o2)cc1 | active: 5.17 µM | –
8 | CC1=NN(C(=O)c2ccccc2Cl)C(O)(c2cccnc2)C1 (stereo not given) | inconclusive: 3.66 µM [rising, partial curve, poor fit] | –
9 | CC(=O)C1=NN(c2ccc(Cl)cc2)C(c2ccc3c(c2)OCO3)N(C(C)=O)N1C (stereo not given) | – | inactive: -24.7%
10 | CC(C)CCN(C(=O)c1cn2ccccc2n1)c1c(N)n(Cc2ccccc2)c(=O)[nH]c1=O | – | inactive: -3.94%
11 | O=Cc1cc(CCC(=O)O)ccc1O | inconclusive: 16.4 µM [rising, single point] | –
12 | CCOC(=O)N1CCN(C(=O)C(=O)Nc2sc3c(c2C(=O)O)CC(C)(C)OC3)CC1 | – | inactive: 15.3%
13 | O=C(CCC1N=C2c3ccccc3N=C(SCc3cccc(Cl)c3)N2C1=O)NCc1ccco1 (stereo not given) | inconclusive: 29.1 µM [cytotoxic, single point] | –
14 | CCOc1ccccc1NC(=O)/C(C#N)=C/c1cccnc1 | inconclusive: 11.6 µM [rising, partial curve, poor fit] | –
15 | O=C(CSc1nc2c(c(C(F)(F)F)n1)CCc1ccccc1-2)NCc1ccco1 | – | inactive: -18.3%
16 | CC(=O)Oc1ccccc1C(=O)Nc1ccccc1C(=O)N1CCCCC1 | – | inactive: -28.6%
17 | O=C(C1CCCC1)N1CCCC(Nc2ccccc2)C1 (stereo not given) | inconclusive: 0.731 µM [rising, full curve, poor fit] | –
18 | CN(C)c1ccc(NC(=O)/C=C/c2c(Cl)cccc2Cl)cc1 | active: 13 µM | –
19 | CCCCc1nc2n[nH]c(N)c2c2c1CCC2 | active: 0.651 µM | –
20 | O=C(NCc1cccs1)C1CC(c2ccccc2O)=NO1 (stereo not given) | inconclusive: 29.1 µM [cytotoxic, single point] | –
21 | Cc1cccc(COc2ccc(-c3cc(C(F)(F)F)n4nc(C)cc4n3)cc2)c1 | – | inactive: 12.9%
22 | O=C1C2CCCCN2C(=O)N1CCN1CCN(c2ccc(F)cc2)CC1 (stereo not given) | – | inactive: -1.49%
23 | NC(=O)c1ccccc1NC(=O)CCc1ccccc1 | – | inactive: 6.23%

Row | Structure (SMILES) | Potency | activity change, negative = cytotoxicity
24 | COc1ccccc1CNC(=O)CSc1ncc(C(=O)Nc2ccccc2)c(=O)n1C | – | inactive: -5.12%
25 | CCNC(=O)n1cc(-n2cncn2)c(-c2ccccc2)n1 | inconclusive: 29.1 µM [rising, single point] | –
26 | CC1(C)Cc2c(sc3nc(-c4ccccc4)oc(=O)c23)CO1 | inconclusive: 18.4 µM [rising, partial curve] | –
27 | COC(=O)[C@]12CCCCC=C1N(Cc1ccc3c(c1)OCO3)C(=O)[C@H](CC(=O)NCc1ccccc1)C2 | inconclusive: 7.31 µM [cytotoxic, partial curve, poor fit] | –
28 | O=C(Nc1ccccc1)C1=C[C@H](c2ccc3c(c2)OCO3)C[C@H](OCc2ccc(CO)cc2)O1 | – | inactive: 2.04%
29 | Cc1cccc(C)c1NC(=O)CN(C)CC(=O)Nc1ccccc1Oc1ccccc1 | inconclusive: 11.6 µM [cytotoxic, partial curve] | –
30 | COc1ccc(NC(=O)C/C(C)=N/NC(=O)c2ccco2)c([N+](=O)[O-])c1 | – | inconclusive: 14.7%
31 | CCS(=O)(=O)c1ccc(-c2cccc(NC(=O)c3ccco3)c2)nn1 | inconclusive: 1.3 µM [rising, full curve] | –
32 | COc1ccc(NC(=O)c2ccc(-n3cccn3)nc2)cc1 | inconclusive: 18.4 µM [cytotoxic, single point] | –
33 | CCCn1c(SCC(=O)N(C2CCCCC2)C2CCS(=O)(=O)C2)n[nH]c1=O (stereo not given) | – | inactive: -9.96%
34 | Cc1ccc(NC(=O)CCNS(=O)(=O)c2cccs2)cc1F | inconclusive: 3.66 µM [rising, full curve] | –
35 | CC(C)C[C@@H](CN1CCC[C@@H]1CN1C(=S)NC[C@@H]1Cc1ccccc1)N1C[C@H](Cc2ccc(O)cc2)N(CC2CCCCCC2)C1=S | inconclusive: 29.1 µM [cytotoxic, single point] | –
36 | Cc1ccc(OCc2nc(C#N)c(NCc3ccco3)o2)cc1 | inconclusive: 32.6 µM [cytotoxic, single point] | –
37 | CCSc1nnc(-c2cccc(S(=O)(=O)N(CC)CC)c2)n1Cc1ccccc1 | inconclusive: 10.3 µM [cytotoxic, partial curve, poor fit] | –
38 | Cc1ccccc1N1C(=O)CC(N2CCN(C(=O)c3ccco3)CC2)C1=O (stereo not given) | inconclusive: 29.1 µM [rising, single point] | –
39 | COc1ccccc1NC(=O)Cn1cnc2sc(C)c(S(=O)(=O)N3CCCCC3)c2c1=O | active: 9.2 µM | –
40 | COc1ccc(N2CC(=O)N(c3ccccc3)C2=S)cc1 | inconclusive: 11.6 µM [cytotoxic, partial curve] | –
41 | Cc1cc(C)c(NC(=O)CSCc2c(C)noc2C)c(Cl)c1 | inconclusive: 29.1 µM [cytotoxic, single point] | –
42 | CCCCN(CCCC)S(=O)(=O)c1ccc(NC(=O)c2ccc([N+](=O)[O-])cc2Cl)cc1 | active: 16.4 µM | –
43 | CCOC(=O)C1=C(C)N(Cc2ccccc2)C(=O)NC1c1ccccc1OS(=O)(=O)c1ccccc1[N+](=O)[O-] (stereo not given) | active: 7.31 µM | –
44 | CC(=O)N1CCc2cc(C(=O)CN3CCC(C)CC3)ccc21 | inconclusive: 23.1 µM [rising, single point] | –
45 | CCN(CC)c1ccc(NC(=O)C2CCCN(S(=O)(=O)c3ccc4c(c3)oc(=O)n4C)C2)c(C)c1 (stereo not given) | inconclusive: 1.64 µM [rising, partial curve] | –
